Values quoted from earlier work in patent US20020055536A1, “System and method for structure-based drug design that includes accurate prediction of binding free energy” (priority 1996, published 2002).
At least one structure is not confirmed: it was looked up by name or label, or the drawing left a doubt.

Target: T1, HIV-1 protease (Human immunodeficiency virus type 1 group M subtype B, UniProt P04585)
T1 construct: The following HIV-1 protease ligands were tested by the method of the present invention

CC(C)[C@H](NC(=O)[C@H](Cc1ccccc1)C[C@H](O)[C@H](Cc1ccccc1)NC(=O)OC(C)(C)C)C(N)=O [C]
Ki: 1.4 nM
